{
  "source": "the supplement of paper PMC8728848",
  "assay_in_all_cases": "glycan array binding signal (z-score within array); higher = stronger binding",
  "settings_in_all_cases": "glycan notation: IUPAC condensed, linker removed",
  "key": {"[1]": {"target": "Fuc(a1-3)[Gal3S(b1-4)]GlcNAc", "how_it_was_run": "(§1)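 From the Consortium for Functional Glycomics database, 3228 arrays were curated, keeping only those whose protein sequence was available. Binding is given as a within-array Z-score averaged across arrays sharing a protein sequence and across linkers. Negative Z-scores can be read as non-binding.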"}, "[2]": {"target": "Fuc(a1-3)[Gal3S(b1-4)]GlcNAc6S", "how_it_was_run": "as §1"}, "[3]": {"target": "Fuc(a1-3)[GalNAc(b1-4)]GlcNAc", "how_it_was_run": "as §1"}, "[4]": {"target": "Fuc(a1-3)[GalNAc(b1-4)]GlcNAc6S", "how_it_was_run": "as §1"}, "[5]": {"target": "Fuc(a1-4)GlcNAc", "how_it_was_run": "as §1"}, "[6]": {"target": "Fuc(b1-3)GlcNAc", "how_it_was_run": "as §1"}, "[7]": {"target": "Gal(a1-2)Gal", "how_it_was_run": "as §1"}, "[8]": {"target": "Gal(a1-3)Gal", "how_it_was_run": "as §1"}, "[9]": {"target": "Gal(a1-3)Gal(b1-3)GlcNAc", "how_it_was_run": "as §1"}, "[10]": {"target": "Gal(a1-3)Gal(b1-3)GlcNAc(b1-2)Man", "how_it_was_run": "as §1"}, "[11]": {"target": "Gal(a1-3)Gal(b1-3)GlcNAc(b1-2)Man(a1-3)[Gal(a1-3)Gal(b1-3)GlcNAc(b1-2)Man(a1-6)]Man(b1-4)GlcNAc(b1-4)GlcNAc", "how_it_was_run": "as §1"}, "[12]": {"target": "Gal(a1-3)Gal(b1-3)GlcNAc(b1-3)GalNAc", "how_it_was_run": "as §1"}, "[13]": {"target": "Gal(a1-3)Gal(b1-3)GlcNAc(b1-6)GalNAc", "how_it_was_run": "as §1"}, "[14]": {"target": "Gal(a1-3)Gal(b1-3)[Fuc(a1-4)]GlcNAc(b1-2)Man(a1-3)[Gal(a1-3)Gal(b1-3)[Fuc(a1-4)]GlcNAc(b1-2)Man(a1-6)]Man(b1-4)GlcNAc(b1-4)GlcNAc", "how_it_was_run": "as §1"}, "[15]": {"target": "Gal(a1-3)Gal(b1-4)Glc", "how_it_was_run": "as §1"}, "[16]": {"target": "Gal(a1-3)Gal(b1-4)GlcNAc", "how_it_was_run": "as §1"}, "[17]": {"target": "Gal(a1-3)Gal(b1-4)GlcNAc(b1-2)Man", "how_it_was_run": "as §1"}, "[18]": {"target": "Gal(a1-3)Gal(b1-4)GlcNAc(b1-2)Man(a1-3)[Gal(a1-3)Gal(b1-4)GlcNAc(b1-2)Man(a1-6)]Man(b1-4)GlcNAc(b1-4)GlcNAc", "how_it_was_run": "as §1"}, "[19]": {"target": "Gal(a1-3)Gal(b1-4)GlcNAc(b1-3)GalNAc", "how_it_was_run": "as §1"}, "[20]": {"target": "Gal(a1-3)Gal(b1-4)GlcNAc(b1-6)GalNAc", "how_it_was_run": "as §1"}, "[21]": {"target": "Gal(a1-3)Gal(b1-4)[Fuc(a1-3)]GlcNAc", "how_it_was_run": "as §1"}, "[22]": {"target": "Gal(a1-3)Gal(b1-4)[Fuc(a1-3)]GlcNAc(b1-2)Man(a1-3)[Gal(a1-3)Gal(b1-4)[Fuc(a1-3)]GlcNAc(b1-2)Man(a1-6)]Man(b1-4)GlcNAc(b1-4)GlcNAc", "how_it_was_run": "as §1"}, "[23]": {"target": "Gal(a1-3)GalNAc", "how_it_was_run": "as §1"}, "[24]": {"target": "Gal(a1-3)[Gal(a1-4)]Gal(b1-4)GlcNAc", "how_it_was_run": "as §1"}, "[25]": {"target": "Gal(a1-4)Gal(b1-3)GlcNAc(b1-2)Man(a1-3)[Gal(a1-4)Gal(b1-3)GlcNAc(b1-2)Man(a1-6)]Man(b1-4)GlcNAc(b1-4)GlcNAc", "how_it_was_run": "as §1"}, "[26]": {"target": "Gal(a1-4)Gal(b1-4)Glc", "how_it_was_run": "as §1"}, "[27]": {"target": "Gal(a1-4)Gal(b1-4)GlcNAc", "how_it_was_run": "as §1"}, "[28]": {"target": "Gal(a1-4)Gal(b1-4)GlcNAc(b1-2)Man(a1-3)[Gal(a1-4)Gal(b1-4)GlcNAc(b1-2)Man(a1-6)]Man(b1-4)GlcNAc(b1-4)GlcNAc", "how_it_was_run": "as §1"}, "[29]": {"target": "Gal(a1-4)Gal(b1-4)GlcNAc(b1-3)Gal(b1-4)Glc", "how_it_was_run": "as §1"}, "[30]": {"target": "Gal(a1-4)GlcNAc", "how_it_was_run": "as §1"}, "[31]": {"target": "Gal(a1-6)Glc", "how_it_was_run": "as §1"}, "[32]": {"target": "Gal(b1-2)Gal", "how_it_was_run": "as §1"}, "[33]": {"target": "Gal(b1-3)Gal", "how_it_was_run": "as §1"}, "[34]": {"target": "Gal(b1-3)Gal(b1-4)GlcNAc", "how_it_was_run": "as §1"}, "[35]": {"target": "Gal(b1-3)GalNAc", "how_it_was_run": "as §1"}, "[36]": {"target": "Gal(b1-3)GalNAc(a1-3)[Fuc(a1-2)]Gal(b1-4)Glc", "how_it_was_run": "as §1"}, "[37]": {"target": "Gal(b1-3)GalNAc(a1-3)[Fuc(a1-2)]Gal(b1-4)GlcNAc", "how_it_was_run": "as §1"}, "[38]": {"target": "Gal(b1-3)GalNAc(b1-3)Gal", "how_it_was_run": "as §1"}, "[39]": {"target": "Gal(b1-3)GalNAc(b1-3)Gal(a1-4)Gal(b1-4)Glc", "how_it_was_run": "as §1"}, "[40]": {"target": "Gal(b1-3)GalNAc(b1-4)Gal(b1-4)Glc", "how_it_was_run": "as §1"}, "[41]": {"target": "Gal(b1-3)GalNAc(b1-4)[Neu5Ac(a2-3)]Gal(b1-4)Glc", "how_it_was_run": "as §1"}, "[42]": {"target": "Gal(b1-3)GlcNAc", "how_it_was_run": "as §1"}, "[43]": {"target": "Gal(b1-3)GlcNAc(a1-3)Gal(b1-4)GlcNAc", "how_it_was_run": "as §1"}, "[44]": {"target": "Gal(b1-3)GlcNAc(a1-6)Gal(b1-4)GlcNAc", "how_it_was_run": "as §1"}, "[45]": {"target": "Gal(b1-3)GlcNAc(b1-2)Man", "how_it_was_run": "as §1"}},
  "note": "The other results are listed elsewhere or left out.",
  "data": [
    {"binder": "CD34 (Homo sapiens), P28906 (protein) MGSSHHHHHHSSGLVPRGSHMSTSLATSPTKPYTSSSPILSDIKAEIKCSGIREVKLTQGICLEQNKTSSCAEFKKDRGEGLARVLCGEEQADADAGAQVCSLLLAQSEVRPQCLLLVLANRTEISSKLQLMKKHQSDLKKLGILDFTEQDVASHQSYSQKT", "values": [
      {"measurement": "glycan array binding signal (z-score)", "setting": "[1]", "result": 0.027},
      {"measurement": "glycan array binding signal (z-score)", "setting": "[2]", "result": 0.434},
      {"measurement": "glycan array binding signal (z-score)", "setting": "[3]", "result": 0.021},
      {"measurement": "glycan array binding signal (z-score)", "setting": "[4]", "result": 0.563},
      {"measurement": "glycan array binding signal (z-score)", "setting": "[5]", "result": 0.624},
      {"measurement": "glycan array binding signal (z-score)", "setting": "[6]", "result": -0.187},
      {"measurement": "glycan array binding signal (z-score)", "setting": "[7]", "result": -0.315},
      {"measurement": "glycan array binding signal (z-score)", "setting": "[8]", "result": 0.754},
      {"measurement": "glycan array binding signal (z-score)", "setting": "[9]", "result": 0.398},
      {"measurement": "glycan array binding signal (z-score)", "setting": "[10]", "result": 0.084},
      {"measurement": "glycan array binding signal (z-score)", "setting": "[11]", "result": 0.337},
      {"measurement": "glycan array binding signal (z-score)", "setting": "[12]", "result": -0.326},
      {"measurement": "glycan array binding signal (z-score)", "setting": "[13]", "result": -0.355},
      {"measurement": "glycan array binding signal (z-score)", "setting": "[14]", "result": 0.079},
      {"measurement": "glycan array binding signal (z-score)", "setting": "[15]", "result": 0.448},
      {"measurement": "glycan array binding signal (z-score)", "setting": "[16]", "result": -0.308},
      {"measurement": "glycan array binding signal (z-score)", "setting": "[17]", "result": -1.01},
      {"measurement": "glycan array binding signal (z-score)", "setting": "[18]", "result": -0.096},
      {"measurement": "glycan array binding signal (z-score)", "setting": "[19]", "result": -0.341},
      {"measurement": "glycan array binding signal (z-score)", "setting": "[20]", "result": -0.095},
      {"measurement": "glycan array binding signal (z-score)", "setting": "[21]", "result": -0.613},
      {"measurement": "glycan array binding signal (z-score)", "setting": "[22]", "result": 0.796},
      {"measurement": "glycan array binding signal (z-score)", "setting": "[23]", "result": -0.408},
      {"measurement": "glycan array binding signal (z-score)", "setting": "[24]", "result": 0.595},
      {"measurement": "glycan array binding signal (z-score)", "setting": "[25]", "result": -0.544},
      {"measurement": "glycan array binding signal (z-score)", "setting": "[26]", "result": -0.414},
      {"measurement": "glycan array binding signal (z-score)", "setting": "[27]", "result": -0.781},
      {"measurement": "glycan array binding signal (z-score)", "setting": "[28]", "result": 0.07},
      {"measurement": "glycan array binding signal (z-score)", "setting": "[29]", "result": -0.647},
      {"measurement": "glycan array binding signal (z-score)", "setting": "[30]", "result": -0.469},
      {"measurement": "glycan array binding signal (z-score)", "setting": "[31]", "result": -0.517},
      {"measurement": "glycan array binding signal (z-score)", "setting": "[32]", "result": -0.471},
      {"measurement": "glycan array binding signal (z-score)", "setting": "[33]", "result": 0.494},
      {"measurement": "glycan array binding signal (z-score)", "setting": "[34]", "result": -0.649},
      {"measurement": "glycan array binding signal (z-score)", "setting": "[35]", "result": -0.417},
      {"measurement": "glycan array binding signal (z-score)", "setting": "[36]", "result": 0.602},
      {"measurement": "glycan array binding signal (z-score)", "setting": "[37]", "result": -0.912},
      {"measurement": "glycan array binding signal (z-score)", "setting": "[38]", "result": -0.13},
      {"measurement": "glycan array binding signal (z-score)", "setting": "[39]", "result": 0.138},
      {"measurement": "glycan array binding signal (z-score)", "setting": "[40]", "result": 0.08},
      {"measurement": "glycan array binding signal (z-score)", "setting": "[41]", "result": -0.075},
      {"measurement": "glycan array binding signal (z-score)", "setting": "[42]", "result": -0.133},
      {"measurement": "glycan array binding signal (z-score)", "setting": "[43]", "result": 0.324},
      {"measurement": "glycan array binding signal (z-score)", "setting": "[44]", "result": -0.222},
      {"measurement": "glycan array binding signal (z-score)", "setting": "[45]", "result": 0.666}
    ]}
  ]
}
